# Patent US11377496B2, “Targeting agent antibody conjugates and uses thereof” (The Scripps Research Institute, priority 2013, dated 2022)
# Sequences of proteins named here, by UniProt entry; tags and fusion partners are left off.
# UniProt Q04609, whole entry: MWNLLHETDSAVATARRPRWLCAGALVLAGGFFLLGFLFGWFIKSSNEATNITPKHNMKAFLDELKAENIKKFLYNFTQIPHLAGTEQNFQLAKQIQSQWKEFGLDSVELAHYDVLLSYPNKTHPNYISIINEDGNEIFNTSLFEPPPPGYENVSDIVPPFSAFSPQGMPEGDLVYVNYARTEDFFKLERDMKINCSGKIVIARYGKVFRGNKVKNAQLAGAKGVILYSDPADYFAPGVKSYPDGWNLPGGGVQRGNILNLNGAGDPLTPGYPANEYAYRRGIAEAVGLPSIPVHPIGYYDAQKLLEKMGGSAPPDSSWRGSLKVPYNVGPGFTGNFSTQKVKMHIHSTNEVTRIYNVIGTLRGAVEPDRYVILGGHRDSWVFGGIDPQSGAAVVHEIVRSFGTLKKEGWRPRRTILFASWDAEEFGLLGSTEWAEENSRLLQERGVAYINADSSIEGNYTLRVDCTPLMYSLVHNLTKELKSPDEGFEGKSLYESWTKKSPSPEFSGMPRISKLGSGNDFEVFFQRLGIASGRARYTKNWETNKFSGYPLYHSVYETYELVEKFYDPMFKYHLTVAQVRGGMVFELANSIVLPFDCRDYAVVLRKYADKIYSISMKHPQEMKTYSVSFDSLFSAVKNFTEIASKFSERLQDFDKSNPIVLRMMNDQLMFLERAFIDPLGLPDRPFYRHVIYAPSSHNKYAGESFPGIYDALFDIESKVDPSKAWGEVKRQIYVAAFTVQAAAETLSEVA
# Not every entry of the source has a single result; some have several. This list holds those alone. The source may hold further records. Results that share an entry differ for a reason that is not stated; dose, time, organism, isomer or construct need not be as stated for each record.
# Target: rhPSMA (Homo sapiens, UniProt Q04609)
# Assay: PSMA inhibition assay
# Format: biochemical
# Conditions: Trials 1-3; substrate NAAG
structure (smiles),measurement,value
"CC(=O)N[C@@H](CC(=O)O)C(=O)N[C@@H](CCC(=O)O)C(=O)O [NAAG, N-acetyl-aspartyl-glutamate]",Km,109 nM and 755 nM
